Assay results: publication PMC8960830
The exact form of at least one protein or probe is not confirmed. For some of these results: No signal at the amounts used counts as a negative. For some of these results: At least one verdict rests on a figure or table, not on a statement of the authors. For some of these results: The comparison behind a weaker result is the experiment's own reference, which may not be listed here.

How the values were obtained:
S9.6 Fab WT [1] = assay: fluorescence polarization; conditions: FP: 25 mM Tris-HCl pH 7.5, 50 mM NaCl, 2 mM MgCl2, 21 C, ~5 nM FAM duplex, SEC-MALS 150 mM NaCl, recombinant protein, protein details: HC C-terminal His6
S9.6 Fab WT [2] = assay: SEC-MALS; conditions: 150 mM NaCl, recombinant protein, protein details: HC C-terminal His6
S9.6 Fab WT [3] = assay: crystal structure; conditions: recombinant protein; protein details: HC C-terminal His6; DNA:RNA hybrid; letters put together from the description
S9.6 Fab HC_N55A = assay: fluorescence polarization; conditions: negligible impact; FP: 25 mM Tris-HCl pH 7.5, 50 mM NaCl, 2 mM MgCl2, 21 C, ~5 nM FAM duplex; SEC-MALS 150 mM NaCl; recombinant protein; protein details: HC C-terminal His6; DNA:RNA hybrid; letters put together from the description
S9.6 Fab HC_N55R = assay: fluorescence polarization; conditions: negligible impact; FP: 25 mM Tris-HCl pH 7.5, 50 mM NaCl, 2 mM MgCl2, 21 C, ~5 nM FAM duplex; SEC-MALS 150 mM NaCl; recombinant protein; protein details: HC C-terminal His6; DNA:RNA hybrid; letters put together from the description
S9.6 Fab HC_R104A = assay: fluorescence polarization; conditions: complete ablation; FP: 25 mM Tris-HCl pH 7.5, 50 mM NaCl, 2 mM MgCl2, 21 C, ~5 nM FAM duplex; SEC-MALS 150 mM NaCl; recombinant protein; protein details: HC C-terminal His6; DNA:RNA hybrid; letters put together from the description
S9.6 Fab HC_S103A = assay: fluorescence polarization; conditions: contact dispensable; FP: 25 mM Tris-HCl pH 7.5, 50 mM NaCl, 2 mM MgCl2, 21 C, ~5 nM FAM duplex; SEC-MALS 150 mM NaCl; recombinant protein; protein details: HC C-terminal His6; DNA:RNA hybrid; letters put together from the description
S9.6 Fab HC_S31L = assay: fluorescence polarization; conditions: N.D., abolished; FP: 25 mM Tris-HCl pH 7.5, 50 mM NaCl, 2 mM MgCl2, 21 C, ~5 nM FAM duplex; SEC-MALS 150 mM NaCl; recombinant protein; protein details: HC C-terminal His6; DNA:RNA hybrid; letters put together from the description
S9.6 Fab HC_Y100A = assay: fluorescence polarization; conditions: no defect; FP: 25 mM Tris-HCl pH 7.5, 50 mM NaCl, 2 mM MgCl2, 21 C, ~5 nM FAM duplex; SEC-MALS 150 mM NaCl; recombinant protein; protein details: HC C-terminal His6; DNA:RNA hybrid; letters put together from the description
S9.6 Fab HC_Y101A = assay: fluorescence polarization; conditions: FP: 25 mM Tris-HCl pH 7.5, 50 mM NaCl, 2 mM MgCl2, 21 C, ~5 nM FAM duplex; SEC-MALS 150 mM NaCl; recombinant protein; protein details: HC C-terminal His6; DNA:RNA hybrid; letters put together from the description
S9.6 scFv = assay: fluorescence polarization; conditions: affinity similar to Fab; FP: 25 mM Tris-HCl pH 7.5, 50 mM NaCl, 2 mM MgCl2, 21 C, ~5 nM FAM duplex; SEC-MALS 150 mM NaCl; recombinant protein; DNA:RNA hybrid; letters put together from the description
S9.6 Fab WT [4] = assay: competition with a labelled probe; conditions: no competition at 50,000-fold excess; recombinant protein; protein details: HC C-terminal His6
S9.6 Fab WT [5] = assay: ITC; conditions: only insignificant heat; recombinant protein; protein details: HC C-terminal His6; letters put together from the description
[6] = only weak binding at 40% GC or less, label: 5' FAM, DNA:RNA hybrid, letters put together from the description
[7] = Kd of three dsRNAs 1.5-5.4 uM, label: 5' FAM, letters put together from the description
[8] = Kd of three hybrids 78-203 nM, label: 5' FAM, DNA:RNA hybrid, letters put together from the description

## TATACATATA / UAUAUGUAUA [10-bp hybrid 10% GC]
S9.6 Fab WT [1]; [6]
  binding result: binds more weakly

## AAAUGCAGGUGCC / GGCACCUGCAUUU [B-actin terminator 13-bp dsRNA]
S9.6 Fab WT [1]; [7]
  binding result: binds more weakly

## TATATATATA / UAUAUAUAUA [10-bp hybrid 0% GC]
S9.6 Fab WT [1]; [6]
  binding result: binds more weakly

## TAGACAGATA / UAUCUGUCUA [10-bp hybrid 30% GC]
S9.6 Fab WT [1]; [6]
  binding result: binds more weakly

## TATATATATATATAT / AUAUAUAUAUAUAUA [15-bp hybrid 0% GC]
S9.6 Fab WT [1]; essentially no binding, label: 5' FAM, DNA:RNA hybrid, letters put together from the description
  binding result: no binding

## CGTGTCAGACAAG / CUUGUCUGACACG [13-bp DNA-RNA hybrid]
S9.6 Fab WT [2]; 1:1 complex, DNA:RNA hybrid, letters put together from the description
  binding result: binds
S9.6 Fab WT [3]
  binding result: binds
S9.6 Fab HC_N55A
  binding result: binds
S9.6 Fab HC_N55R
  binding result: binds
S9.6 Fab HC_R104A
  binding result: no binding
S9.6 Fab HC_S103A
  binding result: binds
S9.6 Fab HC_S31L
  binding result: no binding
S9.6 Fab HC_Y100A
  binding result: binds
S9.6 Fab HC_Y101A
  binding result: no binding
S9.6 scFv
  binding result: binds

## GGCACCTGCATTT (double strand) [B-actin terminator 13-bp dsDNA]
S9.6 Fab WT [1]; label: 5' FAM
  binding result: no binding

## TAGACAGACA / UGUCUGUCUA [10-bp hybrid 40% GC]
S9.6 Fab WT [1]; N.D. in table, only weak binding at 40% GC or less, label: 5' FAM, DNA:RNA hybrid, letters put together from the description
  binding result: binds more weakly

## CGTGTCAGACAAG (double strand) [13-bp dsDNA]
S9.6 Fab WT [2]
  binding result: no binding
S9.6 Fab WT [1]; N.D.
  binding result: no binding
S9.6 Fab WT [4]
  binding result: no binding

## GCAGAGGAGGCTA (double strand) [FUS 13-bp dsDNA]
S9.6 Fab WT [1]; label: 5' FAM
  binding result: no binding

## UAGCCUCCUCUGC / GCAGAGGAGGCUA [FUS 13-bp dsRNA]
S9.6 Fab WT [1]; [7]
  binding result: binds more weakly

## CUUGUCUGACACG / CGUGUCAGACAAG [13-bp dsRNA]
S9.6 Fab WT [5]
  binding result: no binding
S9.6 Fab WT [2]; letters put together from the description
  binding result: no binding

## GCAGAGGAGGCTA / UAGCCUCCUCUGC [FUS 13-bp hybrid]
S9.6 Fab WT [1]; [8]
  binding result: binds

## GGCACCTGCATTT / AAAUGCAGGUGCC [B-actin terminator 13-bp hybrid]
S9.6 Fab WT [1]; [8]
  binding result: binds

## TATACAGATA / UAUCUGUAUA [10-bp hybrid 20% GC]
S9.6 Fab WT [1]; [6]
  binding result: binds more weakly

## CGTCTCAGACAAG / CUUGUCUGAGACG [13-bp hybrid dG4C:rC10G]
S9.6 Fab WT [1]; negligible impact, label: 5' FAM, DNA:RNA hybrid, letters put together from the description
  binding result: binds
